Taken from: PubChem BioAssay AID1159599 (NIAID, 2016)
In all, the deposit lists 756 reagents; below is a part drawn at random. Of all reagents, 130 (17%) got an active call. 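Calls are two-sided: actives include siRNAs that raised the Tnf reporter as well as ones that lowered it.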 A number with no mark means an inactive call. Reagents against one gene are numbered here. Not given: the amount of reagent.

Test: 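Which TLR pathway genes are needed for LPS-driven Tnf promoter activity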
System: mouse RAW264.7 G9 macrophage reporter clone cells
Knock-down reagent: single siRNA against mouse genes
Time to read-out: 48 to 72 h after siRNA transfection, LPS for the last 16 h
Conditions: LPS (Salmonella minnesota R595), 16 h before fixation; dose not stated
Measured: 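Nuclear mCherry from a Tnf promoter reporter imaged after LPS, background removed, robust z-score from per-plate median and MAD, averaged over replicates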
Reading the numbers: Tnf reporter z-score: higher = stronger Tnf promoter reporter signal after LPS
Rule for the call: 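Called active if the mean z-score over replicates passes 1.5 in either direction, up or down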
Meaning of the calls: active = strong change either way; inactive = little change

{"gene":"Atf2 (GeneID 11909)","reagent":1,"Tnf reporter z-score, replicate mean":-0.937}
{"gene":"Atf2 (GeneID 11909)","reagent":2,"Tnf reporter z-score, replicate mean":-1.11}
{"gene":"Atf2 (GeneID 11909)","reagent":3,"Tnf reporter z-score, replicate mean":-0.353}
{"gene":"Atf2 (GeneID 11909)","reagent":4,"Tnf reporter z-score, replicate mean":"1.57 (active)"}
{"gene":"Atf2 (GeneID 11909)","reagent":5,"Tnf reporter z-score, replicate mean":"-2.17 (active)"}
{"gene":"Atf2 (GeneID 11909)","reagent":6,"Tnf reporter z-score, replicate mean":0.304}
{"gene":"Cd14 (GeneID 12475)","reagent":1,"Tnf reporter z-score, replicate mean":"-1.76 (active)"}
{"gene":"Cd14 (GeneID 12475)","reagent":2,"Tnf reporter z-score, replicate mean":"-2.08 (active)"}
{"gene":"Cd14 (GeneID 12475)","reagent":3,"Tnf reporter z-score, replicate mean":"-1.69 (active)"}
{"gene":"Cd14 (GeneID 12475)","reagent":4,"Tnf reporter z-score, replicate mean":0.342}
{"gene":"Cd14 (GeneID 12475)","reagent":5,"Tnf reporter z-score, replicate mean":"-1.85 (active)"}
{"gene":"Cd14 (GeneID 12475)","reagent":6,"Tnf reporter z-score, replicate mean":0.107}
{"gene":"Map2k3 (GeneID 26397)","reagent":1,"Tnf reporter z-score, replicate mean":-0.409}
{"gene":"Map2k3 (GeneID 26397)","reagent":2,"Tnf reporter z-score, replicate mean":0.0732}
{"gene":"Map2k3 (GeneID 26397)","reagent":3,"Tnf reporter z-score, replicate mean":-0.0163}
{"gene":"Map2k3 (GeneID 26397)","reagent":4,"Tnf reporter z-score, replicate mean":-0.652}
{"gene":"Map2k3 (GeneID 26397)","reagent":5,"Tnf reporter z-score, replicate mean":-1.31}
{"gene":"Map2k3 (GeneID 26397)","reagent":6,"Tnf reporter z-score, replicate mean":"1.5 (active)"}
{"gene":"Dusp1 (GeneID 19252)","reagent":1,"Tnf reporter z-score, replicate mean":1.26}
{"gene":"Dusp1 (GeneID 19252)","reagent":2,"Tnf reporter z-score, replicate mean":0.104}
{"gene":"Dusp1 (GeneID 19252)","reagent":3,"Tnf reporter z-score, replicate mean":-0.572}
{"gene":"Dusp1 (GeneID 19252)","reagent":4,"Tnf reporter z-score, replicate mean":0.18}
{"gene":"Dusp1 (GeneID 19252)","reagent":5,"Tnf reporter z-score, replicate mean":0.262}
{"gene":"Dusp1 (GeneID 19252)","reagent":6,"Tnf reporter z-score, replicate mean":-0.928}

As entered above.
Entry for Atf2 (GeneID 11909) #6 in “Tnf reporter z-score, replicate mean”: 0.304
Result of Map2k3 (GeneID 26397) #1 under “Tnf reporter z-score, replicate mean”: -0.409
Map2k3 (GeneID 26397) #4, Tnf reporter z-score, replicate mean = -0.652
Cd14 (GeneID 12475) #1, Tnf reporter z-score, replicate mean → -1.76 (active)
Dusp1 (GeneID 19252) #1, Tnf reporter z-score, replicate mean → 1.26

Next entries follow:
{"gene":"Tank (GeneID 21353)","reagent":1,"Tnf reporter z-score, replicate mean":-0.532}
{"gene":"Tank (GeneID 21353)","reagent":2,"Tnf reporter z-score, replicate mean":1.41}
{"gene":"Tank (GeneID 21353)","reagent":3,"Tnf reporter z-score, replicate mean":0.685}
{"gene":"Tank (GeneID 21353)","reagent":4,"Tnf reporter z-score, replicate mean":1.29}
{"gene":"Tank (GeneID 21353)","reagent":5,"Tnf reporter z-score, replicate mean":0.00624}
{"gene":"Tank (GeneID 21353)","reagent":6,"Tnf reporter z-score, replicate mean":0.306}
{"gene":"Rel (GeneID 19696)","reagent":1,"Tnf reporter z-score, replicate mean":-0.528}
{"gene":"Rel (GeneID 19696)","reagent":2,"Tnf reporter z-score, replicate mean":-0.127}
{"gene":"Rel (GeneID 19696)","reagent":3,"Tnf reporter z-score, replicate mean":-0.306}
{"gene":"Rel (GeneID 19696)","reagent":4,"Tnf reporter z-score, replicate mean":-0.387}
{"gene":"Rel (GeneID 19696)","reagent":5,"Tnf reporter z-score, replicate mean":-0.842}
{"gene":"Rel (GeneID 19696)","reagent":6,"Tnf reporter z-score, replicate mean":-1.01}
{"gene":"Mapk3 (GeneID 26417)","reagent":1,"Tnf reporter z-score, replicate mean":-0.128}
{"gene":"Mapk3 (GeneID 26417)","reagent":2,"Tnf reporter z-score, replicate mean":"2.13 (active)"}
{"gene":"Mapk3 (GeneID 26417)","reagent":3,"Tnf reporter z-score, replicate mean":-0.749}
{"gene":"Mapk3 (GeneID 26417)","reagent":4,"Tnf reporter z-score, replicate mean":0.192}
{"gene":"Mapk3 (GeneID 26417)","reagent":5,"Tnf reporter z-score, replicate mean":-1.3}
{"gene":"Mapk3 (GeneID 26417)","reagent":6,"Tnf reporter z-score, replicate mean":0.343}
{"gene":"Tlr5 (GeneID 53791)","reagent":1,"Tnf reporter z-score, replicate mean":-0.369}
{"gene":"Tlr5 (GeneID 53791)","reagent":2,"Tnf reporter z-score, replicate mean":"1.83 (active)"}
{"gene":"Tlr5 (GeneID 53791)","reagent":3,"Tnf reporter z-score, replicate mean":-0.104}
{"gene":"Tlr5 (GeneID 53791)","reagent":4,"Tnf reporter z-score, replicate mean":1.01}
{"gene":"Tlr5 (GeneID 53791)","reagent":5,"Tnf reporter z-score, replicate mean":-0.668}
{"gene":"Tlr5 (GeneID 53791)","reagent":6,"Tnf reporter z-score, replicate mean":-0.369}
